# Results are given in words; binding and its absence hold for the method and conditions named. Binding seen in cells or lysates may run through a third protein. Binding calls can cover weak binding; strength is not graded here. Where a sequence is shown, tags or fusion partners need not be part of it.
# Target: T1, GFP-tagged full-length CD24 (human) (UniProt P25063)
# T1 sequence: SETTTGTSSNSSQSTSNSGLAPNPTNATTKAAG
# Assay: co-IP; HEK293T cells overexpressing GFP-tagged full-length CD24 and Flag-tagged RCC2 domains; IP with anti-GFP antibody, blot with anti-FLAG antibody
row,Substance,binding
1,Flag-tagged RCC2 C-terminal domain (domain or fragment),binds
2,Flag-tagged RCC2 N-terminal domain (domain or fragment),binds

# From publication PMC12520681
